Assay results: the supplement of paper PMC3334620
The full ranking holds about 33,000 sequences; the median of “E-score (-0.5 to 0.5)” is about -0.016, and the highest 2% start at about 0.3. This is one part of the list.

Target: T1, Yer184c (UniProt P39961)
T1 sequence: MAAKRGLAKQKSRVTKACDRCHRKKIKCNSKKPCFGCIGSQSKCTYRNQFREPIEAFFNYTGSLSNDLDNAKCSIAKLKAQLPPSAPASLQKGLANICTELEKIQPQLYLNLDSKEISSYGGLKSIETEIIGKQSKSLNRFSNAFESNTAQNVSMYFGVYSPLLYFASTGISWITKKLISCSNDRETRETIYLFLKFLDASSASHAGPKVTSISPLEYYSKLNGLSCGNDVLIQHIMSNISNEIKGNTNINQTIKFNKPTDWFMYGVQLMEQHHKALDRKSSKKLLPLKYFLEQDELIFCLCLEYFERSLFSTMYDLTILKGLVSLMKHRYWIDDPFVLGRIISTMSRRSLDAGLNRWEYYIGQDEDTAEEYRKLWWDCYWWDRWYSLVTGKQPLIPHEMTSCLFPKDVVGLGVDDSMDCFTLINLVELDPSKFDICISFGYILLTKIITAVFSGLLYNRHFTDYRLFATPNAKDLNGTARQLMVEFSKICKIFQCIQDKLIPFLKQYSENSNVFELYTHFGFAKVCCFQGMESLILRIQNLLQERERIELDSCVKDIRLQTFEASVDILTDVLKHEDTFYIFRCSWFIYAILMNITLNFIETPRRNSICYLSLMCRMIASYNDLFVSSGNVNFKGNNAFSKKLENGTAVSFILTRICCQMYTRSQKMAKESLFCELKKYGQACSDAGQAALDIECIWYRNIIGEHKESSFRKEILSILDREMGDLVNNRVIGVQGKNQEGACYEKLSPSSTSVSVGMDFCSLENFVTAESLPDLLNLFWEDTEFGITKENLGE
Assay: PBM E-score (8-mer binding enrichment) (E-score (-0.5 to 0.5)); higher = stronger / more preferred TF binding
Conditions: protein concentration: 100 nM; construct: GST-full length
Method in brief: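 The E-score, a modified Wilcoxon-Mann-Whitney statistic, was computed by the Universal PBM Analysis Suite for every ungapped eight-base word pooled with its reverse complement. Scans behind it were normalised with masliner after bound GST-tagged yeast transcription factors were detected with fluorescent anti-GST. The proteins, at about 100-200 nM, had been applied to universal all-10-mer Agilent arrays made double-stranded by primer extension.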

| Sequence | PBM E-score |
| --- | --- |
| AACACTAC | 0.0594 |
| GAGATTTA | -0.0184 |
| CGGCACAG | 0.298 |
| AGAATCGC | 0.105 |
| CACTATGC | -0.00061 |
| GGTGTAGA | -0.226 |
| AGCACCGG | 0.165 |
| AATAAAAT | 0.245 |
| ATCTCCAC | -0.186 |
| GCCTGGCA | -0.184 |
| GATTCCCA | -0.0287 |
| AAGCGTTC | -0.0864 |
| AGCATCCT | -0.133 |
| AGACATCT | -0.106 |
| AAAGCTTA | 0.122 |
| ACAACCAA | -0.146 |
| GAGCATAC | -0.0747 |
| AGTCCCAC | -0.204 |
| CGAATTCC | 0.155 |
| ATGCAATA | -0.11 |
| GCAACAAC | -0.0398 |
| CGAAATAA | 0.255 |

| Sequence | PBM E-score |
| --- | --- |
| TCACTTCA | -0.114 |
| ACATATTA | 0.303 |
| CTGGTAAG | 0.0165 |
| AGGTTTGA | -0.124 |
| AAGAGGAA | 0.23 |
| GATGCGCA | -0.132 |
| GGCGGTAC | -0.0204 |
| ATGTGTGG | -0.0465 |
| TCAGCGCA | -0.0396 |
| TCTCTCAA | 0.148 |
| AGACAACA | 0.0565 |
| ACAAATAT | 0.294 |
| GGAGCGTA | 0.00527 |
| AAACTAAC | 0.186 |
| ATTAGTCC | 0.0928 |
| AAGACACC | -0.0492 |
| ACTCGTTA | -0.115 |
| ACACGAAC | 0.104 |
| CGTTTCAC | 0.135 |
| ATCGTCAT | -0.0179 |
| CACTAACA | -0.0483 |
| CCCGTACG | -0.167 |

| Sequence | PBM E-score |
| --- | --- |
| ACGACTGG | -0.133 |
| CCTGCCTC | -0.26 |
| CCTTCAAC | -0.11 |
| CGGGGCAA | -0.0316 |
| GCTTGGCC | -0.0475 |
| CTAGAATC | -0.0424 |
| CTGTCACC | -0.00626 |
| CTTTAAAG | 0.0852 |
| CATGTCAG | -0.123 |
| AGTTGACG | 0.0095 |
| AGTGAGCC | -0.191 |
| GATCAAAC | 0.0397 |
| GAAGCCTA | 0.0682 |
| TCAGCCCA | -0.171 |
| CATCACTC | -0.0441 |
| GGGAGGAC | -0.0985 |
| CGGACACA | 0.139 |
| ACCGAAGT | 0.136 |
| ATGCCTCC | -0.228 |
| CCCTCAGA | -0.323 |
| AATAGTCC | -0.0591 |
| GAACCCCC | -0.364 |

As entered above:
PBM E-score, AGTGAGCC reads -0.191
PBM E-score, CACTAACA reads -0.0483
PBM E-score, TCAGCCCA reads -0.171
PBM E-score, CGGGGCAA reads -0.0316
PBM E-score, AAAGCTTA reads 0.122
PBM E-score, TCAGCGCA reads -0.0396

Following part:

| Sequence | PBM E-score |
| --- | --- |
| AATTTCCT | 0.114 |
| AGACTATA | 0.155 |
| CAGGATCC | -0.128 |
| CACGGACG | 0.236 |
| CGCTTGCC | -0.0496 |
| TTAGAGAA | -0.0611 |
| AGTAAACC | -0.0783 |
| CAATTAAA | 0.0731 |
| CGACGTCA | -0.015 |
| AATATCCT | 0.0503 |
| CCGGTCAG | 0.0577 |
| ATCCGGTC | 0.214 |
| GTCCATAA | -0.116 |
| GGGGCAAA | -0.29 |
| GCCGAAGA | 0.315 |
| GCCTAGCA | -0.128 |
| ACTGCAAC | -0.208 |
| CATCTAAA | 0.123 |
| GACATGTA | 0.0416 |
| AAATGCCT | 0.017 |
